Test results as given in PubChem BioAssay AID662 (National Center for Advancing Translational Sciences (NCATS), 2007).
Values joined by “and” are separate entries in the source; they are usually repeats but may differ in a detail not shown here. Equal entries are not always repeated. The list shows a part of the results. Shown are side measurements of this screen, not its main read-out; they come without a call. Compounds called inactive in the main read-out are mostly missing here. The note in brackets gives the kind of curve behind each potency; many fits are weak.

Test: Cell signaling CRE-BLA (Fsk stim)
Details: CHO CRE-bla reporter (cAMP response element driving beta-lactamase), forskolin EC10, beta-lactamase ratio; measured here: 460 nm blue channel
Method in brief: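 CHO CRE-bla cells, overnight plating in Opti-MEM with 0.5% dialyzed FBS; cpd titration + EC10 NKH 477, 3 h 37 °C; CCF4 2 h RT; ex 405/em 460 vs 530 ratio → %Activity, AC50.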
For `CCCSc1nc(O)c(CC)c(=O)n1C(C)CC` (stereo unspecified), the AC50 was 5.01 µM [rising, single point].
In the case of `COCCCn1c(N)c(C(=O)NCCC(C)C)c2nc3ccccc3nc21`, the AC50 is reported as 12.6 µM [rising, partial curve].
With `CCC(=NCc1cccnc1)c1c(O)n(Cc2ccccc2)c(=O)[nH]c1=O` the AC50 was 1.58 µM [rising, full curve, poor fit].
For `COc1ccc(C2=NCC(=O)N(CC(=O)NCc3ccco3)c3sc4c(c32)CCCC4)cc1OC`, the AC50 was 3.98 µM [rising, single point].
In the case of `CS(=O)(=O)Nc1ccc(Cc2noc(-c3ccc4[nH]cc(CCN)c4c3)n2)cc1`, the AC50 is reported as 7.94 µM [falling, partial curve, poor fit].
With `Cc1nc2cc(F)ccc2n1C1CCN(Cc2nnnn2CCc2ccccc2)CC1` the AC50 was 3.98 µM [rising, partial curve].
For `CC(=O)Nc1ccc(OC(=O)N(C)c2ccccc2)cc1`, the AC50 was 0.00316 µM [falling, full curve].
With `N[C@@H](Cc1c[nH]c2ccccc12)c1nnc(SCc2c(F)cccc2Cl)o1` the AC50 was 25.1 µM [rising, single point].
For `C/C=C(\C)C(=O)O[C@@H]1C(C)=C2[C@H]([C@@H]1OC(=O)CCCCCCC)[C@@](C)(OC(C)=O)C[C@@H](OC(=O)CCC)[C@@]1(O)[C@H]2OC(=O)[C@]1(C)O`, the AC50 was 0.0251 µM [rising, full curve].
For `C[C@]1(O)CC[C@H]2[C@@H]3[C@@H](O)CC4=CC(=O)CC[C@@]4(C)[C@H]3CC[C@]21C`, the AC50 was 3.16 µM [falling, single point].
With `O=c1[nH]c(=O)n(C2CCCCCC2)c(O)c1C=NCC1CCCO1` (stereo unspecified) the AC50 was 12.6 µM [rising, single point].
In the case of `c1cncc(C2CC(c3cccs3)n3ncnc3N2)c1` (stereo unspecified), the AC50 is reported as 0.00794 µM [falling, full curve, poor fit].
In the case of `CCC(=NC1CCN(Cc2ccccc2)CC1)c1c(O)[nH]c(=O)[nH]c1=O`, the AC50 is reported as 25.1 µM [rising, single point].
For `CCCc1cc2c(n1Cc1ccco1)C(C)C1CN(C(=O)c3ccccc3)C(C)(C(=O)OC)C21` (stereo unspecified), the AC50 was 20 µM [rising, single point].
In the case of `O=c1c2ccccc2[se]n1-c1ccccc1`, the AC50 is reported as 15.8 µM [falling, partial curve] and 3.98 µM [falling, full curve, poor fit].
With `CCCCN=Cc1c(O)n(-c2c(C)cc(C)cc2C)c(=O)[nH]c1=O` the AC50 was 12.6 µM [rising, single point].
In the case of `O=C(Cn1ncc2c3ccccc3n(Cc3ccccc3F)c2c1=O)N1CCC2(CC1)OCCO2`, the AC50 is reported as 0.126 µM [falling, full curve, poor fit].
In the case of `O=C(COc1ccccc1)N1CCN(C2CCCC2)CC1`, the AC50 is reported as 0.00631 µM [falling, full curve].
For `COc1ccc(N=C(C)c2c(O)n(C)c(=O)n(C)c2=O)c(OC)c1`, the AC50 was 0.794 µM [rising, full curve].
With `COc1cc2c(cc1O)C[C@H]1c3c(cc(OC)c(O)c3-2)CCN1C` the AC50 was 7.94 µM [falling, partial curve, poor fit].
In the case of `Cn1c(O)c(C=Nc2ccc3c(c2)CCC3)c(=O)n(C)c1=O`, the AC50 is reported as 12.6 µM [rising, partial curve].
With `Cc1cccc(C)c1NC1=NCCCCS1` the AC50 was 31.6 µM [falling, single point].
In the case of `O=C(CCc1nc(-c2ccccc2F)no1)N1CCC2(CC1)OCCO2`, the AC50 is reported as 25.1 µM [falling, single point].
In the case of `CNc1ccc2oc(C[C@H]3O[C@]4(CC[C@H]3C)O[C@H]([C@H](C)C(=O)c3ccc[nH]3)[C@H](C)C[C@H]4C)nc2c1C(=O)O`, the AC50 is reported as 0.251 µM [rising, full curve].
For `Nc1ccccc1N=Cc1c(O)n(CCC2=CCCCC2)c(=O)[nH]c1=O`, the AC50 was 25.1 µM [rising, partial curve].
In the case of `CSC([N-]/N=C/c1cccc(C)n1)=[S]=[Cu].CS[C@H]([S-])[N-]/N=C/c1cccc(C)n1`, the AC50 is reported as 5.01 µM [falling, single point].
For `Cc1ccc(CN2CCN(C)CC2)c(C)c1`, the AC50 was 0.00316 µM [falling, full curve].
With `CCC(=NCC1CCCO1)c1c(O)n(-c2ccccc2)c(=O)[nH]c1=O` (stereo unspecified) the AC50 was 1 µM [rising, full curve, poor fit].
With `CCNc1nc(Cl)nc(NC(C)C)n1` the AC50 was 10 µM [rising, full curve].
With `Oc1c(Br)c(Br)c(Br)c(Br)c1Br` the AC50 was 15.8 µM [falling, partial curve, poor fit].
In the case of `CN1C(=O)N(C)C(=O)C2(Cc3c(ccc4ccccc34)N(C)C2)C1=O`, the AC50 is reported as 7.94 µM [falling, partial curve].
With `c1ccc2c(c1)-c1cccc3cccc-2c13` the AC50 was 12.6 µM [rising, full curve].
For `COc1cc(OC)cc(-n2nc(C(=O)N3CCC4(CC3)OCCO4)c3ccccc3c2=O)c1`, the AC50 was 10 µM [rising, partial curve, poor fit].
With `C=CCn1c(O)c(C(C)=Nc2ccc(N(CC)CC)cc2)c(=O)[nH]c1=O` the AC50 was 25.1 µM [rising, single point].
With `Cc1cccn2c(=O)c3cc(C(=O)N4CCC5(CC4)OCCO5)n(C)c3nc12` the AC50 was 0.398 µM [rising, full curve].
For `Cc1ccc(CC2C(=O)N(C)C(=O)N(C)C2=O)s1`, the AC50 was 0.1 µM [rising, full curve].
In the case of `CN(C)c1ccc(N=O)cc1`, the AC50 is reported as 10 µM [falling, partial curve].
With `CC(C)(c1ccccc1)c1ccc(O)cc1` the AC50 was 10 µM [rising, full curve].
For `CCCCn1c(O)c(C(C)=NCCc2ccccc2)c(=O)[nH]c1=O`, the AC50 was 25.1 µM [rising, single point].
For `O=c1[nH]c(=O)n(CCC2=CCCCC2)c(O)c1C=NCCN1CCNCC1`, the AC50 was 5.01 µM [falling, full curve].
With `Cc1ccc(-n2c(O)c(C=Nc3ccccc3N)c(=O)[nH]c2=O)cc1C` the AC50 was 0.00794 µM [falling, full curve, poor fit].
